Measurements reported in US8741840B2, “BMP-7 for use in treating neointimal hyperplasia” (Washington University, priority 2008, dated 2014).

Test: Blood tests: serum biochemical parameters in the various groups of animals
Type: in vivo, mouse
Conditions: LDLR-/-, fat diet, CKD, 28 weeks post natal, BMP-7 10 μg/kg IP weekly or binder 3% in diet

Row | Molecule | BUN [mg/dL] | Calcium | Glucose [mg/dL] | Cholesterol [mg/dL]
1 | O=C([O-])[O-].[Ca+2] [CaCO3] | 58 ± 10.625 | 6.9 ± .589 mg/dL | 124 ± 13.2 | –
2 | O=C([O-])[O-].O=C([O-])[O-].O=C([O-])[O-].[La+3].[La+3] [Lanthanum, LaCO3] | 40 ± 5.3 | 8.2 ± .3 mg/dL | 201 ± 19 | 889 ± 80
3 | BMP-7: bone morphogenetic protein-7 (osteogenic protein-1), mineralization-countering morphogen; provided by Johnson and Johnson (protein, listed as Homo sapiens) STGSKQRSQNRSKTPKNQEALRMANVAENSSSDQRQACKKHELYVSFRDLGWQDWIIAPEGYAAYYCEGECAFPLNSYMNATNHAIVQTLVHFINPETVPKPCCAPTQLNAISVLYFDDSSNVILKKYRNMVVRACGCH | 52.50 ± 5.172 | 8.37 ± .229 mg/dL | 191 ± 13.8 | 911.6 ± 93.7
